The values below come from doi:10.1101/2024.08.18.608437.

These are yes or no findings as the source states them, for the method shown. Binding seen in cells or lysates may run through a third protein. Some results given as binding are weak or reduced against the parent protein; the word gives no strength.

The assay addresses T1, MRE11 (UniProt P49959).
T1 sequence: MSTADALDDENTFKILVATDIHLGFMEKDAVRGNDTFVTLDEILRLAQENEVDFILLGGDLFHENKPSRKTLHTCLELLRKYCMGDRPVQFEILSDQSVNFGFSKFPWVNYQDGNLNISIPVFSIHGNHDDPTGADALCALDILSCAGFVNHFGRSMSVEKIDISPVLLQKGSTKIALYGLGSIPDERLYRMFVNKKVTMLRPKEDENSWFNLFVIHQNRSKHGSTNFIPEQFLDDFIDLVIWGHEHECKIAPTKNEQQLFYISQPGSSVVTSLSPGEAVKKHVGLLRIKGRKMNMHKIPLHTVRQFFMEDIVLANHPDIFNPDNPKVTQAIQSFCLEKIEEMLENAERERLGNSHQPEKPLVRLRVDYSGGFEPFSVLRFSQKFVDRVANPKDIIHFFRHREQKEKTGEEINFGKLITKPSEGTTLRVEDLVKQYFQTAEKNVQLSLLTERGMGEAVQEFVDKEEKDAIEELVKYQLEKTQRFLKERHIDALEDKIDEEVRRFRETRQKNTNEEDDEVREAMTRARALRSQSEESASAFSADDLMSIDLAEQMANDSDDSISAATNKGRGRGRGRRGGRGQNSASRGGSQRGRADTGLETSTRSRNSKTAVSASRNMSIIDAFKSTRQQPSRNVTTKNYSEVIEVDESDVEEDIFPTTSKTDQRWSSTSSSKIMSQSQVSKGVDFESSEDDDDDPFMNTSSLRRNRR
Briefly: co-IP.

B1: DNA polymerase kappa (protein, UniProt Q9UBT6 1-870)
chain: MDSTKEKCDSYKDDLLLRMGLNDNKAGMEGLDKEKINKIIMEATKGSRFYGNELKKEKQVNQRIENMMQQKAQITSQQLRKAQLQVDRFAMELEQSRNLSNTIVHIDMDAFYAAVEMRDNPELKDKPIAVGSMSMLSTSNYHARRFGVRAAMPGFIAKRLCPQLIIVPPNFDKYRAVSKEVKEILADYDPNFMAMSLDEAYLNITKHLEERQNWPEDKRRYFIKMGSSVENDNPGKEVNKLSEHERSISPLLFEESPSDVQPPGDPFQVNFEEQNNPQILQNSVVFGTSAQEVVKEIRFRIEQKTTLTASAGIAPNTMLAKVCSDKNKPNGQYQILPNRQAVMDFIKDLPIRKVSGIGKVTEKMLKALGIITCTELYQQRALLSLLFSETSWHYFLHISLGLGSTHLTRDGERKSMSVERTFSEINKAEEQYSLCQELCSELAQDLQKERLKGRTVTIKLKNVNFEVKTRASTVSSVVSTAEEIFAIAKELLKTEIDADFPHPLRLRLMGVRISSFPNEEDRKHQQRSIIGFLQAGNQALSATECTLEKTDKDKFVKPLEMSHKKSFFDKKRSERKWSHQDTFKCEAVNKQSFQTSQPFQVLKKKMNENLEISENSDDCQILTCPVCFRAQGCISLEALNKHVDECLDGPSISENFKMFSCSHVSATKVNKKENVPASSLCEKQDYEAHPKIKEISSVDCIALVDTIDNSSKAESIDALSNKHSKEECSSLPSKSFNIEHCHQNSSSTVSLENEDVGSFRQEYRQPYLCEVKTGQALVCPVCNVEQKTSDLTLFNVHVDVCLNKSFIQELRKDKFNPVNQPKESSRSTGSSSGVQKAVTRTKRPGLMTKYSTSKKIKPNNPKHTLDIFFK
With B1, the binding entry was “binds”.
